Measurements as given in publication PMC8657149.

Tests used:
[1] = biological target: T1, TaLTP3(30-122)-GFP (Triticum aestivum (common wheat line Chinese Spring)) (UniProt Q84N29); assay: co-IP; coexpression in N. benthamiana (tobacco) leaves, total proteins extracted at 3 dpi, IP with GFP-trap beads, immunoblot with α-GFP and α-cMYC
T1 sequence: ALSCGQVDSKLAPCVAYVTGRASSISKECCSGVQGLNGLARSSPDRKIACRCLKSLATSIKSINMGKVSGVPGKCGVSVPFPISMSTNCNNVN

[2] = biological target: T2, TaLTP3-YFP^N, full-length TaLTP3 with signal peptide fused to the N-terminal half of YFP (Triticum aestivum (common wheat line Chinese Spring)) (UniProt Q84N29); assay: split reporter; BiFC: YFP^N and YFP^C fusions coexpressed in N. benthamiana leaves by Agrobacterium infiltration; yellow fluorescence checked 48 hpi
T2 sequence: T1 sequence

| Substance | binding [1] | binding [2] |
| --- | --- | --- |
| TaPR1a(25-164)-cMYC (wheat (Triticum aestivum)) (domain or fragment) | binds |  |
| TaPR1a-YFP^C, complete coding region of TaPR1a fused to the C-terminal half of YFP (wheat (Triticum aestivum)) |  | binds |
| SP(TaPR1a)-YFP^C, signal peptide of TaPR1a fused to the C-terminal half of YFP (wheat (Triticum aestivum)) (domain or fragment) |  | no binding |

These are yes or no findings as the source states them, for the method shown. In cells and extracts the contact can be indirect. Binding can be weak; no strength is given. Tags and fused reporters may be left off the sequences shown.
